Laboratory results: article PMC12816671
For at least one entry, the source does not settle the construct or the ends of the probe.

Target: Ku70 SAP domain WT (Homo sapiens) (UniProt P12956)
Assay: EMSA
Conditions: apparent KD, 105 mM KCl; SAP EMSA: 105 mM KCl (400 bp) or 46 mM KCl (153 bp), 3 mM Tris-HCl pH 7.5, 0.1 mM EDTA, 3-4% glycerol, 15 min room temp, agarose (0.8% or 1.5%); recombinant protein; residues 539-609; probe letters rebuilt from the primers and the genome

Sequence: ACTTGACTCATGATTTCTTACCTATTAGTGGTTGAACAGCATCGGACTCAGATAGTAATCCACGCTCTTTTAAAATGTCAACAAGAGAATCTCTACCATGAACAAAATGTGACTCATATCTAAACCAGTCCTTGACGAACGTGCCAAGCATATTAAGCCACTTCTCCTCATCCAACGCGTCAGTTTTTGACAGAATCGTTAGTTGATGGCGAAAGGTCGCAAAGTAAGAGCTTCTCGAGCTGCGCAAGGATAGGTCGAATTTTCTCATTTTCCGCCAGCAGTCCACTTCGATTTAATTCGTAAACAAGCAGTAGTAATTCCTGCTTTATCAAGATAATTTTTCGACTCATCAGAAATATCCGAAAGTGTTAACTTCTGCGTCATGGAAGCGATAAAACTC (double strand) [400 bp PhiX174 fragment]
- binding result: binds
